Values from PubChem BioAssay AID1259308 (NCATS, 2017).
Assay: 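Candidate targets for better recombinant protein yield in mammalian cells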 (primary screen). Cell system: human HEK293 embryonic kidney cells stably expressing firefly luciferase (HEK-CMV-Luc2-Hygro). Reagents: single siRNA against human genes, 0.8 pmol siRNA per well. Time to read-out: 72 h. Measured: 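Luciferase light (ONE-Glo) measured on one replicate plate set and viability (CellTiter-Glo) on the other, scaled to a negative control siRNA, with robust z-scores and luciferase per cell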. Scale: total luciferase, z-score and total luciferase, % of control: higher = more reporter protein produced; luciferase per cell, z-score: higher = more reporter output per viable cell; viable cells, % of control: higher = more viable cells. Rule for the call: 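An siRNA counts as active if its total luciferase robust z-score exceeds 3; genes with two or more such siRNAs out of three were retested with fresh siRNAs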. Calls: active = raised luciferase; inactive = no rise.
Here is one part, drawn at random, of about 59,000 reagents tested. In the full data, about 1,510 (2.6%) were called active. 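Calls use total luciferase alone and ignore viability, so some active siRNAs may act by altering cell number.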 Reagents against one gene are numbered here.

target,siRNA no.,"total luciferase, z-score","total luciferase, % of control","luciferase per cell, z-score","viable cells, % of control",call
BTG1 (BTG anti-proliferation factor 1),1,-1.83,45.5,-0.251,54.3,inactive
BTG1 (BTG anti-proliferation factor 1),2,-0.994,62.1,0.0289,68.9,inactive
BTG1 (BTG anti-proliferation factor 1),3,0.691,95.6,0.898,84.4,inactive
"BOC (BOC cell adhesion associated, oncogene regulated)",1,2.08,123,1.93,82.8,inactive
"BOC (BOC cell adhesion associated, oncogene regulated)",2,0.742,96.6,2.11,62,inactive
"BOC (BOC cell adhesion associated, oncogene regulated)",3,-0.445,73,-0.836,102,inactive
SF3B1 (splicing factor 3b subunit 1),1,-0.657,68.8,3.58,30,inactive
SF3B1 (splicing factor 3b subunit 1),2,2.38,129,5.54,33.6,inactive
SF3B1 (splicing factor 3b subunit 1),3,2.14,125,4.87,38.6,inactive
NTN1 (netrin 1),1,-1.17,58.6,-1.38,94.1,inactive
NTN1 (netrin 1),2,-0.765,66.7,-0.596,87.1,inactive
NTN1 (netrin 1),3,0.533,92.5,1.27,74,inactive
ARRB1 (arrestin beta 1),1,-0.725,67.5,-0.82,93.6,inactive
ARRB1 (arrestin beta 1),2,-1.06,60.7,0.648,57.2,inactive
ARRB1 (arrestin beta 1),3,2.12,124,1.2,101,inactive
USH2A (usherin),1,-1.93,43.5,-2.55,95.2,inactive
USH2A (usherin),2,-0.677,68.4,-1.03,100,inactive
USH2A (usherin),3,0.28,87.5,-0.478,111,inactive
C1orf74 (chromosome 1 open reading frame 74),1,0.182,85.5,0.846,76.5,inactive
C1orf74 (chromosome 1 open reading frame 74),2,0.711,96,0.593,91.8,inactive
C1orf74 (chromosome 1 open reading frame 74),3,0.723,96.3,0.271,100,inactive
TRIB1 (tribbles pseudokinase 1),1,-0.377,74.4,0.0236,82.6,inactive
TRIB1 (tribbles pseudokinase 1),2,0.218,86.2,-0.17,101,inactive
TRIB1 (tribbles pseudokinase 1),3,-1.48,52.5,-1,76.3,inactive
CRLF3P1 (CRLF3 pseudogene 1),1,0.704,95.9,0.0222,107,inactive
CRLF3P1 (CRLF3 pseudogene 1),2,0.0613,83.1,-0.156,96.8,inactive
CRLF3P1 (CRLF3 pseudogene 1),3,-0.484,72.3,-1.01,105,inactive
GRM1 (glutamate metabotropic receptor 1),1,-0.527,71.4,-0.744,97,inactive
GRM1 (glutamate metabotropic receptor 1),2,1.27,107,1.06,90.7,inactive
GRM1 (glutamate metabotropic receptor 1),3,-0.347,75,-0.735,102,inactive
SMG6 (SMG6 nonsense mediated mRNA decay factor),1,0.478,91.4,-0.777,125,inactive
SMG6 (SMG6 nonsense mediated mRNA decay factor),2,0.178,85.4,-0.102,98.1,inactive
SMG6 (SMG6 nonsense mediated mRNA decay factor),3,-0.982,62.4,-0.319,75.8,inactive
TP53INP1 (tumor protein p53 inducible nuclear protein 1),1,-2.69,28.4,-2.05,54.4,inactive
TP53INP1 (tumor protein p53 inducible nuclear protein 1),2,2.05,123,1.77,85.9,inactive
TP53INP1 (tumor protein p53 inducible nuclear protein 1),3,-0.86,64.8,-0.864,90.9,inactive
ANKRD36 (ankyrin repeat domain 36),1,-0.218,77.6,-0.104,89.1,inactive
ANKRD36 (ankyrin repeat domain 36),2,0.404,89.9,1.35,70.4,inactive
ANKRD36 (ankyrin repeat domain 36),3,-1.38,54.4,-1.14,81.9,inactive
PCDHB15 (protocadherin beta 15),1,1.16,105,1.14,86.9,inactive
PCDHB15 (protocadherin beta 15),2,-1.02,61.6,-0.688,82.5,inactive
PCDHB15 (protocadherin beta 15),3,-0.632,69.3,-0.701,93.2,inactive
EYA1 (EYA transcriptional coactivator and phosphatase 1),1,-1.13,59.4,0.292,61.4,inactive
EYA1 (EYA transcriptional coactivator and phosphatase 1),2,0.361,89.1,0.445,88.5,inactive
EYA1 (EYA transcriptional coactivator and phosphatase 1),3,0.27,87.2,0.823,78.5,inactive
ACTR10 (actin related protein 10),1,0.912,100,0.546,96.8,inactive
ACTR10 (actin related protein 10),2,-0.281,76.3,-0.212,90.2,inactive
ACTR10 (actin related protein 10),3,0.0318,82.5,-0.738,112,inactive
IL23A (interleukin 23 subunit alpha),1,0.294,87.7,-0.22,104,inactive
IL23A (interleukin 23 subunit alpha),2,-0.141,79.1,-0.703,106,inactive
IL23A (interleukin 23 subunit alpha),3,0.0333,82.5,0.179,88,inactive
C1orf54 (chromosome 1 open reading frame 54),1,-0.413,73.7,-0.167,86,inactive
C1orf54 (chromosome 1 open reading frame 54),2,-0.876,64.5,-1.22,99.4,inactive
C1orf54 (chromosome 1 open reading frame 54),3,1.27,107,1.24,86.2,inactive
MAPT (microtubule associated protein tau),1,2.15,125,2.47,72.7,inactive
MAPT (microtubule associated protein tau),2,-0.493,72.1,0.124,77.9,inactive
MAPT (microtubule associated protein tau),3,-0.387,74.2,0.127,80.2,inactive
CDH23 (cadherin related 23),1,0.677,95.3,0.433,95.1,inactive
CDH23 (cadherin related 23),2,-0.26,76.7,-0.706,103,inactive
CDH23 (cadherin related 23),3,-0.814,65.7,-0.027,73.9,inactive
POFUT4 (protein O-fucosyltransferase 4),1,0.575,93.3,0.538,90.5,inactive
POFUT4 (protein O-fucosyltransferase 4),2,-0.625,69.4,-0.901,98.4,inactive
POFUT4 (protein O-fucosyltransferase 4),3,-1.08,60.4,-1.6,103,inactive
CCDC184 (coiled-coil domain containing 184),1,0.807,97.9,0.724,90.5,inactive
CCDC184 (coiled-coil domain containing 184),2,-1.88,44.5,-2.63,99.3,inactive
CCDC184 (coiled-coil domain containing 184),3,0.345,88.7,0.818,79.9,inactive
ZNF787 (zinc finger protein 787),1,1.45,111,1.43,84.9,inactive
ZNF787 (zinc finger protein 787),2,-1.14,59.2,-1.13,89.2,inactive
ZNF787 (zinc finger protein 787),3,0.134,84.5,-0.531,109,inactive
THAP11 (THAP domain containing 11),1,0.744,96.7,0.8,87.5,inactive
THAP11 (THAP domain containing 11),2,-0.505,71.8,-0.568,93.2,inactive
THAP11 (THAP domain containing 11),3,0.766,97.1,0.46,96.1,inactive
MARK2 (microtubule affinity regulating kinase 2),1,3.65,154,1.63,112,active
MARK2 (microtubule affinity regulating kinase 2),2,2.12,124,1.05,105,inactive
MARK2 (microtubule affinity regulating kinase 2),3,3.68,155,2.26,95.5,active

Sorted by “total luciferase, z-score” (ascending): 11 of the entries above.
target,siRNA no.,"total luciferase, z-score","total luciferase, % of control","luciferase per cell, z-score","viable cells, % of control",call
CCDC184 (coiled-coil domain containing 184),2,-1.88,44.5,-2.63,99.3,inactive
ZNF787 (zinc finger protein 787),2,-1.14,59.2,-1.13,89.2,inactive
THAP11 (THAP domain containing 11),2,-0.505,71.8,-0.568,93.2,inactive
ZNF787 (zinc finger protein 787),3,0.134,84.5,-0.531,109,inactive
CCDC184 (coiled-coil domain containing 184),3,0.345,88.7,0.818,79.9,inactive
THAP11 (THAP domain containing 11),1,0.744,96.7,0.8,87.5,inactive
THAP11 (THAP domain containing 11),3,0.766,97.1,0.46,96.1,inactive
ZNF787 (zinc finger protein 787),1,1.45,111,1.43,84.9,inactive
MARK2 (microtubule affinity regulating kinase 2),2,2.12,124,1.05,105,inactive
MARK2 (microtubule affinity regulating kinase 2),1,3.65,154,1.63,112,active
MARK2 (microtubule affinity regulating kinase 2),3,3.68,155,2.26,95.5,active
